The source of these data is the supplement of paper PMC4604168 (melanoma cell lines).

The structures appear in SMILES notation. Some of the results follow. Repeats are few or missing, and single values can be far off.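 Imaging used 1,536-well plates; nuclei positive for cleaved PARP by antibody were divided by total DNA-stained nuclei to yield the apoptosis fraction. Doses for screening kept most cells viable, and cell lines differ markedly in resting and induced cleaved-PARP levels.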

Test systems include COLO792; COLO800; COLO829; G361; IPC-298; IST-MEL1; LB2518-MEL; LOXIMVI.
Common to all, as to assay: cleaved PARP positive nuclei fraction relative to DMSO control; melanoma cells; higher = more apoptosis
What all share (conditions): library dose: low library concentration; 72 h

Turning to `C[C@@H](N)c1ccc(C(=O)Nc2ccnc3[nH]ccc23)cc1` + C/C(O)=C(\C#N)C(=O)Nc1cc(Br)ccc1Br [LFM-A13] (first compound 0.4 µM, partner dose 2 µM), the “cleaved PARP positive nuclei fraction” value with COLO792 turned out to be 171%; in the assay with COLO800 it was 40.1%; in the assay on COLO829, 90%; with G361 it was 91.9%; with IPC-298, 32.9%; in the assay on IST-MEL1, 110%. Further, the entries for the “cleaved PARP positive nuclei fraction” value with LB2518-MEL and in the assay on LOXIMVI were 134% and 118%, respectively.
Turning to `Cn1cc(C2=C(c3cn(C4CCN(Cc5ccccn5)CC4)c4ccccc34)C(=O)NC2=O)c2ccccc21` [Enzastaurin] + O=c1cc(-c2cccc3c2Sc2ccccc2S3)oc(N2CCOCC2)c1 [KU55933] (first compound 0.8 µM, partner dose 1 µM), the “cleaved PARP positive nuclei fraction” value amounted to 43% with COLO792; 114% with COLO800; 105% in the assay on COLO829; 233% with G361; 46.9% in the assay with IPC-298; 106% in the assay with IST-MEL1. The “cleaved PARP positive nuclei fraction” value in the assay with LB2518-MEL came out at 117%; in the assay on LOXIMVI it was 159%.
In the case of `CC(C)C[C@H](NC(=O)[C@H](Cc1ccccc1)NC(=O)c1cnccn1)B(O)O` [Bortezomib] + O=C(Oc1ccc([N+](=O)[O-])cc1)N1CCC(C(O)(c2ccc3c(c2)OCO3)c2ccc3c(c2)OCO3)CC1 [JZL184] (first compound 0.001 µM, partner dose 1 µM), the “cleaved PARP positive nuclei fraction” value in the assay on COLO792 was 73%; with COLO800 it was 35.4%; with COLO829, 186%; in the assay with G361 it was 4300%; in the assay with IPC-298 it was 339%; in the assay with IST-MEL1, 125%. The “cleaved PARP positive nuclei fraction” value with LB2518-MEL amounted to 557%; in the assay with LOXIMVI, 214%.
In the case of `C[C@]12O[C@H](C[C@]1(O)CO)n1c3ccccc3c3c4c(c5c6ccccc6n2c5c31)CNC4=O` [Lestaurtinib] + Cc1cc([N+](=O)[O-])ccc1NS(=O)(=O)c1cc(Cl)ccc1Cl [FH535] (first compound 0.004 µM, partner dose 1 µM), the “cleaved PARP positive nuclei fraction” value was determined as 98.3% in the assay on COLO792; 103% with COLO800; 58.7% in the assay with COLO829; 200% in the assay with G361; 105% with IPC-298; 40.3% in the assay with IST-MEL1. Also, the figures for the “cleaved PARP positive nuclei fraction” value in the assay with LB2518-MEL and in the assay with LOXIMVI were 184% and 178%, respectively.
For the molecule `Nc1ncn([C@H]2C[C@H](O)[C@@H](CO)O2)c(=O)n1` [decitabine] + C/C(O)=C(\C#N)C(=O)Nc1cc(Br)ccc1Br [LFM-A13] (first compound 0.1 µM, partner dose 2 µM), the “cleaved PARP positive nuclei fraction” value in the assay on COLO792 is 125%; with COLO800, 63.5%; in the assay with COLO829, 210%; in the assay with G361 it was 132%; in the assay on IPC-298 it was 82.8%; in the assay on IST-MEL1, 156%. Also, the “cleaved PARP positive nuclei fraction” value with LB2518-MEL is 80.4%; in the assay with LOXIMVI it was 135%.
Take `N.N.[Cl][Pt][Cl]` [cisplatin] + C/C(O)=C(\C#N)C(=O)Nc1cc(Br)ccc1Br [LFM-A13] (first compound 1.6 µM, partner dose 2 µM): the “cleaved PARP positive nuclei fraction” value turned out to be 46.6% in the assay with COLO792; 113% in the assay with COLO800; 83.5% in the assay with COLO829; 76.8% in the assay on G361; 142% in the assay with IPC-298; 46.7% with IST-MEL1. For the same molecule, the “cleaved PARP positive nuclei fraction” value in the assay with LB2518-MEL is 146%; in the assay on LOXIMVI, 135%.
Take `C[C@]12O[C@H](C[C@]1(O)CO)n1c3ccccc3c3c4c(c5c6ccccc6n2c5c31)CNC4=O` [Lestaurtinib] + N#Cc1c(O)c2c(-c3ccc(-c4ccccc4O)cc3)csc2[nH]c1=O [A769662] (first compound 0.004 µM, partner dose 2 µM): the “cleaved PARP positive nuclei fraction” value came out at 76.5% in the assay with COLO792; 78.9% in the assay on COLO800; 86.9% in the assay on COLO829; 131% in the assay with G361; 190% with IPC-298; 52.5% with IST-MEL1. Besides, the entries for the “cleaved PARP positive nuclei fraction” value in the assay with LB2518-MEL and with LOXIMVI were 67.5% and 84.4%, respectively.
With `C[C@]12O[C@H](C[C@]1(O)CO)n1c3ccccc3c3c4c(c5c6ccccc6n2c5c31)CNC4=O` [Lestaurtinib] + O=S(=O)(c1ccccc1)N(CC(F)(F)F)c1ccc(C(O)(C(F)(F)F)C(F)(F)F)cc1 [T0901317] (first compound 0.004 µM, partner dose 1.4 µM), the “cleaved PARP positive nuclei fraction” value with COLO792 worked out at 77.9%; in the assay on COLO800, 99.5%; in the assay with COLO829 it was 81.5%; in the assay with G361 it was 104%; in the assay on IPC-298 it was 34%; in the assay on IST-MEL1, 412%. Moreover, the “cleaved PARP positive nuclei fraction” value worked out at 50.4% in the assay on LB2518-MEL and 52.3% in the assay with LOXIMVI.
Turning to `C[C@]12O[C@H](C[C@]1(O)CO)n1c3ccccc3c3c4c(c5c6ccccc6n2c5c31)CNC4=O` [Lestaurtinib] + O=C(Nc1ccccc1)c1cc([N+](=O)[O-])ccc1Cl [GW9662] (first compound 0.004 µM, partner dose 2 µM), the “cleaved PARP positive nuclei fraction” value in the assay with COLO792 is 76.7%; in the assay with COLO800, 190%; in the assay with COLO829 it was 85.2%; with G361, 136%; with IPC-298 it was 241%; in the assay on IST-MEL1, 93.4%. For the same molecule, the “cleaved PARP positive nuclei fraction” value in the assay with LB2518-MEL is 156%; in the assay on LOXIMVI, 111%.
On to `O=C(O)[C@@H]1[O][Sb](=[O])([O][Sb]2(=[O])[O][C@H]([C@H](O)CO)[C@H](O)[C@H](C(=O)O)[O]2)[O][C@H]([C@H](O)CO)[C@@H]1O` (stereo partly specified) [stibogluconate] + Cc1cc(SCc2sc(-c3ccc(C(F)(F)F)c(F)c3)nc2C)ccc1OCC(=O)O [GW0742] (first compound 2 µM, partner dose 2 µM), for which the “cleaved PARP positive nuclei fraction” value in the assay on COLO792 turned out to be 68.4%; in the assay on COLO800, 97.9%; in the assay with COLO829, 72%; in the assay on G361 it was 334%; in the assay on IPC-298, 44.2%; with IST-MEL1, 86.2%. In addition, the “cleaved PARP positive nuclei fraction” value with LB2518-MEL worked out at 65.7%; with LOXIMVI it was 152%.
`C[C@]12O[C@H](C[C@]1(O)CO)n1c3ccccc3c3c4c(c5c6ccccc6n2c5c31)CNC4=O` [Lestaurtinib] + COC(=O)c1sccc1S(=O)(=O)Nc1ccc(Nc2ccccc2)cc1OC [GSK0660] (first compound 0.004 µM, partner dose 1 µM): the “cleaved PARP positive nuclei fraction” value with COLO792 is 152%; with COLO800 it was 66%; in the assay with COLO829, 17.9%; in the assay with G361, 88.9%; with IPC-298, 99.5%; in the assay on IST-MEL1, 56.6%. In addition, the “cleaved PARP positive nuclei fraction” value in the assay on LB2518-MEL was found to be 70.9%; with LOXIMVI it was 122%.
Consider `O=c1[nH]nc(Sc2ncc([N+](=O)[O-])s2)n1-c1ccc2c(c1)OCCO2` + C/C(O)=C(\C#N)C(=O)Nc1cc(Br)ccc1Br [LFM-A13] (first compound 0.2 µM, partner dose 2 µM), for which the “cleaved PARP positive nuclei fraction” value was 117% in the assay with COLO792; 64.4% with COLO800; 139% in the assay on COLO829; 93.1% with G361; 110% in the assay on IPC-298; 243% in the assay on IST-MEL1. In addition, the “cleaved PARP positive nuclei fraction” value was found to be 65.8% in the assay with LB2518-MEL and 72.5% in the assay on LOXIMVI.
